Some of the results follow.

By UniProt entry, the sequences of proteins in these tests, tags left out.
UniProt Q0JBA9, entry or part of it: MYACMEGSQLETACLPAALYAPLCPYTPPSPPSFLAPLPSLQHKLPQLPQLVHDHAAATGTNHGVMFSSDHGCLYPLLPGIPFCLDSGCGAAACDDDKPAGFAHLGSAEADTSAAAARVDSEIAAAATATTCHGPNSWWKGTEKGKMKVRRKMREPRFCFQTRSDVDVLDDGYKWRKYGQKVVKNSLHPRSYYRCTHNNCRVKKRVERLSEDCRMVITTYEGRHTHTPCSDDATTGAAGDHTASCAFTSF

The experiment deals with OsWRKY34 (Oryza sativa, UniProt Q0JBA9 1-250). Description: protein-binding microarray (RPBM); PBS, 2% BSA, 51.3 ng/ul salmon testes DNA, 50 uM zinc acetate, 200 nM TF, 25 C, 1 h; high values mean tight binding. The settings on record: protein: recombinant; tags: N-terminal polyhistidine and DsRed monomer fusion (pET32a); label: CyDye5-dUTP incorporated in the synthesized complementary strand; 3' TTTTT single-stranded linker to array surface; dsDNA, one strand shown. The method, boiled down: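 The binding signal is fluorescence intensity per array feature (arbitrary units). Readings came from an Axon 4000B scanner after a washed, 2% BSA-blocked, double-stranded custom Agilent array had been incubated for 1 h at 25 °C with 200 nM protein and 50 µM zinc acetate. The protein was a Ni–NTA-purified transcription factor fused N-terminally to polyhistidine and DsRed, expressed in E. coli BL21-CodonPlus.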
For the sequence “CTGTCCATATACACTTTGTTTTTCTCCATACCTGTAACAACGGAGTCACCTAGTGCAG”, the binding signal was 8530 fluorescence intensity (a.u.).

Turning to “CAGCCACTCGATCGTTATCCCTTGTCCGTCTTGCCTTGCCCGGAGTCACCTAGTGCAG”, the binding signal was 12200 fluorescence intensity (a.u.).

In the case of “GCGATGCGCTTGTGCTGCTGCTGTTCGTCGTGTATTGCTCCGGAGTCACCTAGTGCAG”, the binding signal was 8140 fluorescence intensity (a.u.).

Take “TGAACTTTCAACCTTGGCCTTTGGTGCTGTTTTCTTATCTCGGAGTCACCTAGTGCAG”: the binding signal is 8990 fluorescence intensity (a.u.).

With “TTTAATGTATGACACCGTTGACTTTTTAACCAACGTTTGACGGAGTCACCTAGTGCAG”, the binding signal is 36300 fluorescence intensity (a.u.).

On to “ATTTTTTATGGGTGTTTGGTTAGTGGGTGGGAGTGGGATACGGAGTCACCTAGTGCAG”, for which the binding signal is 12000 fluorescence intensity (a.u.).

With “TGAACAAGCTGCTTTAAATTTATTCCTCAGGTTCTTAGTACGGAGTCACCTAGTGCAG”, the binding signal was 8660 fluorescence intensity (a.u.).

With “TTTTATTTGTTGCAGTGTGTTATTGGAATGAGGGTCTTTTCGGAGTCACCTAGTGCAG”, the binding signal is 8680 fluorescence intensity (a.u.).

For “GCACTTATCGTTTATTTTCTTATAATTTATTTTATCATTGCGGAGTCACCTAGTGCAG”, the binding signal was 8830 fluorescence intensity (a.u.).

On to “GCTCTGAATTTTATTTTTTCCGCTTCTTGATTTCTTCGTTCGGAGTCACCTAGTGCAG”, for which the binding signal was 9450 fluorescence intensity (a.u.).

Regarding “GCCTCTAACACGTCTCTCCAGGTATATTGCTAAAATGAGGCGGAGTCACCTAGTGCAG”, the binding signal is 9840 fluorescence intensity (a.u.).

“CTATTGGCCTAGCCTTTTTGTTTTTTTTTCTATTTTAAGTCGGAGTCACCTAGTGCAG”: the binding signal was 11800 fluorescence intensity (a.u.).

Take “GGGAGGTGATTAATTAGTTTAGTTTTTTTTTATTTTTGTTCGGAGTCACCTAGTGCAG”: the binding signal was 9370 fluorescence intensity (a.u.).

In the case of “ATTGACTATTGTGTTTTTCGTGTGTAAGTTCCATTCTCCCCGGAGTCACCTAGTGCAG”, the binding signal is 8610 fluorescence intensity (a.u.).

For “ATCACATCTTAAATCTGAAGTATGGCACGGTTTATTTTCCCGGAGTCACCTAGTGCAG”, the binding signal is 8690 fluorescence intensity (a.u.).

For the sequence “TTCGATGCTCGTTTGTCACGTCGCTTTTAGTTCTATACTACGGAGTCACCTAGTGCAG”, the binding signal is 10100 fluorescence intensity (a.u.).

For “GCACACTTTCCGAGCTATTAAACGGTATATTTCTTTAAAACGGAGTCACCTAGTGCAG”, the binding signal was 8950 fluorescence intensity (a.u.).

For the sequence “CTGATGGTGTTGTTTGGCCGGCCGTTGGGCGAATTCGCCACGGAGTCACCTAGTGCAG”, the binding signal was 8340 fluorescence intensity (a.u.).

On to “CGCCACCATCGCTGCGCCGCCATCGCCACCACCGCAGCCGCGGAGTCACCTAGTGCAG”, for which the binding signal was 8840 fluorescence intensity (a.u.).

Consider “TCCATCTACCGCAATGTTCGCCTGCGCTCTCGCCACCGCACGGAGTCACCTAGTGCAG”, for which the binding signal is 11400 fluorescence intensity (a.u.).

On to “TAGGGAGGGATTAGTTGGTTGTTGCGCTTCGCTGCGCTGTCGGAGTCACCTAGTGCAG”, for which the binding signal was 9690 fluorescence intensity (a.u.).

Turning to “GGCCGTCCGATCCTTCCGCGAGTTGTTTTGGCCGTCCATCCGGAGTCACCTAGTGCAG”, the binding signal was 11200 fluorescence intensity (a.u.).

As for “TTTTTTTGTTATTTGTTGGCTTGTTGTTGTTGCTTATCATCGGAGTCACCTAGTGCAG”, the binding signal was 8260 fluorescence intensity (a.u.).

On to “ACTGTTACATGTGCGTTATACTTCCTCCAATATCATAGTTCGGAGTCACCTAGTGCAG”, for which the binding signal was 8200 fluorescence intensity (a.u.).

“GCAGTATAATCAATCAGCCATTCATGTGTTTTGCAATCATCGGAGTCACCTAGTGCAG”: the binding signal was 9480 fluorescence intensity (a.u.).

On to “GCATTCTTTTTTGGACAACTTTATGATCATGTCATTTTAGCGGAGTCACCTAGTGCAG”, for which the binding signal was 10700 fluorescence intensity (a.u.).

With “TCGATCTCGTCTTCTTCCTTTCCACGGCACACGGCAGCGCCGGAGTCACCTAGTGCAG”, the binding signal is 9910 fluorescence intensity (a.u.).

For the sequence “ATGCTAAAAAGTCAACGGCGTCAATCATTTCGAAACGGAGCGGAGTCACCTAGTGCAG”, the binding signal was 12400 fluorescence intensity (a.u.).

For “CAGCTGCTCGTTTATCTCGTTAGTACAACATATTATCATTCGGAGTCACCTAGTGCAG”, the binding signal was 9940 fluorescence intensity (a.u.).

Regarding “CATGATGAACTAGTAATTACTCCCGCGTGTTGTGCTGTGCCGGAGTCACCTAGTGCAG”, the binding signal is 9870 fluorescence intensity (a.u.).

As for “CATCGAGCTTGATTACCGGTTACTGCATGCTCGCTCGCTCCGGAGTCACCTAGTGCAG”, the binding signal is 8240 fluorescence intensity (a.u.).

For the sequence “TCTGCTTGATCACTAGGCCCTGAAAAGCTTTGTTGCATCACGGAGTCACCTAGTGCAG”, the binding signal is 10400 fluorescence intensity (a.u.).

For the sequence “CACCGTTGACTTTTTAGCACATATTTGACCGTTTGTCTTTCGGAGTCACCTAGTGCAG”, the binding signal is 39100 fluorescence intensity (a.u.).

In the case of “TTAATTTTCTTGTATCGATCACTTAATTAACTTGGTTCTTCGGAGTCACCTAGTGCAG”, the binding signal was 8560 fluorescence intensity (a.u.).

In the case of “AAGTCTTCTTGCGCGCACCGCGGTTGCCCTCCCGGGCGCGCGGAGTCACCTAGTGCAG”, the binding signal was 8060 fluorescence intensity (a.u.).

On to “TTTTTATCAGTTCGTACCATCGAGAACTTTACATCTCAAACGGAGTCACCTAGTGCAG”, for which the binding signal was 9020 fluorescence intensity (a.u.).

Regarding “TCACCGACACTGCCAAACTAGAAATTGCTTTTCCATCTAACGGAGTCACCTAGTGCAG”, the binding signal was 8220 fluorescence intensity (a.u.).

With “ACTACCCCAAACTTACAACTTTCCATCACATCATATGATACGGAGTCACCTAGTGCAG”, the binding signal was 8710 fluorescence intensity (a.u.).

As for “CAACCTACTCTTATCACTAACCACAGTCTTCTCCTAGCTTCGGAGTCACCTAGTGCAG”, the binding signal is 8840 fluorescence intensity (a.u.).

As for “CATCTCGTGCTAAGGGCCTATTCGGCTGCCGGAGTTGCAGCGGAGTCACCTAGTGCAG”, the binding signal is 9100 fluorescence intensity (a.u.).

Take “TCACATCTCATTTTATGTTGGTTTTTTATGGGACGGGAGGCGGAGTCACCTAGTGCAG”: the binding signal is 10200 fluorescence intensity (a.u.).

As for “CAGTATTCATCAGTAACCACTATACATTTTTCTTTACTAACGGAGTCACCTAGTGCAG”, the binding signal was 8980 fluorescence intensity (a.u.).

The values are drawn from paper PMC7819943, “Rice protein-binding microarrays: a tool to detect cis-acting elements near promoter regions in rice”.
